Measured values reported in patent US20070073060A1, “Tricycle indole hydroxyethlamine derivatives and their use in the treatment of alzheimer's disease” (priority 2003, published 2007).
Some entries share one result that the patent states for a list of compounds.

Amino acid sequences for entries named in this document (tags omitted). Residues count along the entry.
UniProt P56817, 46-501: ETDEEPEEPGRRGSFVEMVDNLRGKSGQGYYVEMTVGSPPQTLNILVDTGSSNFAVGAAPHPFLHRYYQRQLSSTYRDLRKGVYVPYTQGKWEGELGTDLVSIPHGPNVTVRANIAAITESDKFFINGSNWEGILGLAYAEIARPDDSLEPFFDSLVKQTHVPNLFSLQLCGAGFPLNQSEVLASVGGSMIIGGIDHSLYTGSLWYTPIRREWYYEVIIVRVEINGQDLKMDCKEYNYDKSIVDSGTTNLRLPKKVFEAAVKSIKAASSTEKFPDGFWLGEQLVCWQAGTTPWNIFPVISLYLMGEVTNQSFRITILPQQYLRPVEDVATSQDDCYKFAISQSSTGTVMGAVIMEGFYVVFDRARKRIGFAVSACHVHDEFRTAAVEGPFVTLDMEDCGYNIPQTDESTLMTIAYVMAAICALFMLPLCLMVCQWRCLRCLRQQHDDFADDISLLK
UniProt P07339, 65-412, species assumed: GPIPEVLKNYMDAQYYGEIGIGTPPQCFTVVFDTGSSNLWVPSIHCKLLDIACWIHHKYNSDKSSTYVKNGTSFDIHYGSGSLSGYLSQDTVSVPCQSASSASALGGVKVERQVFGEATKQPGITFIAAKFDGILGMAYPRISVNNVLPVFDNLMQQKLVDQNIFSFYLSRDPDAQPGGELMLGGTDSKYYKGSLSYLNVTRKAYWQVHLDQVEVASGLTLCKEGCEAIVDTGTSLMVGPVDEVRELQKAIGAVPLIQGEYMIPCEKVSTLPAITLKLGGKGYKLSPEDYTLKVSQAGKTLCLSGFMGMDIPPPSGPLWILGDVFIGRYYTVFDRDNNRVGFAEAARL

Legend:
Asp2 = Asp2 (Homo sapiens, UniProt P56817); assay: Asp-2 Inhibitory Assay; type: biochemical; details: Assay (I); FAM-SEVNLDAEFK-TAMRA substrate, pH 4.5, 1 h room temperature; range over all examples, units printed in the value (nM to μM)
Cathepsin D = Cathepsin D (Homo sapiens, UniProt P07339); assay: Cathepsin D Inhibitory Assay; type: biochemical; details: Assay (II); FAM-SEVNLDAEFK-TAMRA substrate, pH 4.5, 1 h room temperature; range over all examples, units printed in the value (nM to >μM); read-out: inhibition (CatD)

Structure (SMILES)	inhibition (Asp2) (Asp2)	IC50 (Cathepsin D)
CCN1c2cc(C(=O)N[C@@H](Cc3ccccc3)[C@H](O)CNC3CCCCC3)cc3c2c(cn3CC)CCS1(=O)=O [Example E70, Formic acid - N-[(1S, 2R)-3-(Cyclohexylamino)-2-hydroxy-1-(phenylmethyl)propyl]-1,6-diethyl-1,3,4,6-tetrahydro[1,2]thiazepino[5,4,3-cd]indole-8-carboxamide 2,2-dioxide (1:1)]	2 nM-10 μM	≥ 30 nM
CCN1c2cc(C(=O)N[C@@H](Cc3ccccc3)[C@H](O)CNC3CCOCC3)cc3c2c(cn3CC)CCS1(=O)=O [Example E90, 1,6-Diethyl-N-[(1S,2R)-2-hydroxy-1-(phenylmethyl)-3-(tetrahydro-2H-pyran-4-ylamino)propyl]-1,3,4,6-tetrahydro[1,2]thiazepino[5,4,3-cd]indole-8-carboxamide 2,2-dioxide]	2 nM-10 μM	≥ 30 nM
CCn1cc2c3c(cc(C(=O)N[C@@H](Cc4ccccc4)[C@H](O)CNCc4cccnc4)cc31)N(C)S(=O)(=O)CC2.O=CO [Example E8, Formic acid - 6-Ethyl-N-{(1S, 2R)-2-hydroxy-1-(phenylmethyl)-3-[(3-pyridinylmethyl)amino]propyl}-1-methyl-1,3.4,6-tetrahydro[1,2]thiazepino[5,4,3-cd]indole-8-carboxamide 2,2-dioxide (1:1)]	2 nM-10 μM	≥ 30 nM
CCCCn1cc2c3c(cc(C(=O)N[C@@H](Cc4ccccc4)[C@H](O)CNC4CCCCC4)cc31)N(C)S(=O)(=O)CC2.O=CO [Example E59, Formic acid - 6-Butyl-N-[(1S, 2R)-3-(cyclohexylamino)-2-hydroxy-1-(phenylmethyl)propyl]-1-methyl-1,3,4,6-tetrahydro[1,2]thiazepino[5,4,3-cd]indole-8-carboxamide 2,2-dioxide (1:1)]	2 nM-10 μM	≥ 30 nM
C=CCCNC[C@@H](O)[C@H](Cc1ccccc1)NC(=O)c1cc2c3c(cn(CC)c3c1)CCS(=O)(=O)N2C.O=CO [Example E42]	2 nM-10 μM	≥ 30 nM
CCn1cc2c3c(cc(C(=O)N[C@@H](Cc4ccccc4)[C@H](O)CNC4CCCCCCC4)cc31)N(C)S(=O)(=O)CC2 [Example E89, N-[(1S, 2R)-3-(Cyclooctylamino)-2-hydroxy-1-(phenylmethyl)propyl]-6-ethyl-1-methyl-1,3,4,6-tetrahydro[1,2]thiazepino[5,4,3-cd]indole-8-carboxamide 2,2-dioxide]	2 nM-10 μM	≥ 30 nM
CCn1cc2c3c(cc(C(=O)N[C@@H](Cc4ccccc4)[C@H](O)CNC4CC(C)(C)CC(C)(C)C4)cc31)N(C)S(=O)(=O)CC2.O=CO [Example E30, Formic acid - 6-Ethyl-N-{(1S, 2R)-2-hydroxy-1-(phenylmethyl)-3-[(3,3,5,5-tetramethylcyclohexyl)amino]propyl}-1-methyl-1,3,4,6-tetrahydro[1,2]thiazepino[5,4,3-cd]indole-8-carboxamide 2,2-dioxide (1:1)]	2 nM-10 μM	≥ 30 nM
CCn1cc2c3c(cc(C(=O)N[C@@H](Cc4ccccc4)[C@H](O)CNc4ccc(N(C)C)cc4)cc31)N(C)S(=O)(=O)CC2 [Example E72, Formic acid - N-[(1S, 2R)-3-{[4-(Dimethylamino)phenyl]amino}-2-hydroxy-1-(phenylmethyl)propyl]-6-ethyl-1-methyl-1,3,4,6-tetrahydro[1,2]thiazepino[5,4,3-cd]indole-8-carboxamide 2,2-dioxide (1:1)]	2 nM-10 μM	≥ 30 nM
CCn1cc2c3c(cc(C(=O)N[C@@H](Cc4ccccc4)[C@H](O)CNC4(CC)CCCCC4)cc31)N(C)S(=O)(=O)CC2.O=CO [Example E50, Formic acid - 6-Ethyl-N-[(1S, 2R)-3-[(1-ethylcyclohexyl)amino]-2-hydroxy-1-(phenylmethyl)propyl]-1-methyl-1,3,4,6-tetrahydro[1,2]thiazepino[5,4,3-cd]indole-8-carboxamide 2,2-dioxide (1:1)]	2 nM-10 μM	≥ 30 nM
CCn1cc2c3c(cc(C(=O)N[C@@H](Cc4ccccc4)[C@H](O)CNC(C)CCCC(C)C)cc31)N(C)S(=O)(=O)CC2 (stereo partly drawn) [Example E31, N-[(1S, 2R)-3-1[(1,5-Dimethylhexyl)amino]-2-hydroxy-1-(phenylmethyl)propyl]-6-ethyl-1-methyl-1,3,4,6-tetrahydro[1,2]thiazepino[5,4,3-cd]indole-8-carboxamide 2,2-dioxide]	2 nM-10 μM	≥ 30 nM
CCn1cc2c3c(cc(C(=O)N[C@@H](Cc4ccccc4)[C@H](O)CNCC4CC4)cc31)N(C)S(=O)(=O)CC2.O=CO [Example E19, Formic acid - N-[(1S, 2R)-3-[(Cyclopropylmethyl)amino]-2-hydroxy-1-(phenylmethyl)propyl]-6-ethyl-1-methyl-1,3,4,6-tetrahydro[1,2]thiazepino[5,4,3-cd]indole-8-carboxamide 2,2-dioxide (1:1)]	2 nM-10 μM	≥ 30 nM
CCn1cc2c3c(cc(C(=O)N[C@@H](Cc4ccccc4)[C@H](O)CNCCC(C)(C)C)cc31)N(C)S(=O)(=O)CC2.O=CO [Example E29, Formic acid - N-[(1S, 2R)-3-hydroxy-1-(phenylmethyl)propyl]-6-ethyl-1-methyl-1,3,4,6-tetrahydro[1,2]thiazepino[5,4,3-cd]indole-8-carboxamide 2,2-dioxide (1:1)]	2 nM-10 μM	≥ 30 nM
CCn1cc2c3c(cc(C(=O)N[C@@H](Cc4ccccc4)[C@H](O)CNCCC(C)C)cc31)N(C)S(=O)(=O)CC2.O=CO [Example E36, Formic acid - 6-Ethyl-N-[(1S, 2R)-2-hydroxy-3-[(3-methylbutyl)amino]-1-(phenylmethyl)propyl]-1-methyl-1,3,4,6-tetrahydro[1,2]thiazepino[5,4,3-cd]indole-8-carboxamide 2,2-dioxide (1:1)]	2 nM-10 μM	≥ 30 nM
CCn1cc2c3c(cc(C(=O)N[C@@H](Cc4ccccc4)[C@H](O)CN[C@@H](C)C(=O)NC4CCCCC4)cc31)N(C)S(=O)(=O)CC2.O=CO [Example E79, Formic acid - N-[(1S, 2R)-3-{[(1S)-2-(Cyclohexylamino)-1-methyl-2-oxoethyl]amino}-2-hydroxy-1-(phenylmethyl)propyl]-6-ethyl-1-methyl-1,3,4,6-tetrahydro[1,2]thiazepino[5,4,3-cd]indole-8-carboxamide 2,2-dioxide (1:1)]	2 nM-10 μM	≥ 30 nM
C#CC(C)(C)NC[C@@H](O)[C@H](Cc1ccccc1)NC(=O)c1cc2c3c(cn(CC)c3c1)CCS(=O)(=O)N2C.O=CO [Example E88, Formic acid - N-[(1S, 2R)-3-[(1,1Dimethyl-2-propyn-1-yl)amino]-2-hydroxy-1-(phenylmethyl)propyl]-6-ethyl-1-methyl-1,3,4,6-tetrahydro[1,2]thiazepino[5,4,3-cd]indole-8-carboxamide 2,2-dioxide (1:1)]	2 nM-10 μM	≥ 30 nM
